Laboratory results from article PMC8070438.
These are yes or no findings as the source states them, for the method shown. In cells and extracts the contact can be indirect. Some results given as binding are weak or reduced against the parent protein; the word gives no strength.

By UniProt entry, the sequences of proteins in these tests, tags left out.
UniProt O08788: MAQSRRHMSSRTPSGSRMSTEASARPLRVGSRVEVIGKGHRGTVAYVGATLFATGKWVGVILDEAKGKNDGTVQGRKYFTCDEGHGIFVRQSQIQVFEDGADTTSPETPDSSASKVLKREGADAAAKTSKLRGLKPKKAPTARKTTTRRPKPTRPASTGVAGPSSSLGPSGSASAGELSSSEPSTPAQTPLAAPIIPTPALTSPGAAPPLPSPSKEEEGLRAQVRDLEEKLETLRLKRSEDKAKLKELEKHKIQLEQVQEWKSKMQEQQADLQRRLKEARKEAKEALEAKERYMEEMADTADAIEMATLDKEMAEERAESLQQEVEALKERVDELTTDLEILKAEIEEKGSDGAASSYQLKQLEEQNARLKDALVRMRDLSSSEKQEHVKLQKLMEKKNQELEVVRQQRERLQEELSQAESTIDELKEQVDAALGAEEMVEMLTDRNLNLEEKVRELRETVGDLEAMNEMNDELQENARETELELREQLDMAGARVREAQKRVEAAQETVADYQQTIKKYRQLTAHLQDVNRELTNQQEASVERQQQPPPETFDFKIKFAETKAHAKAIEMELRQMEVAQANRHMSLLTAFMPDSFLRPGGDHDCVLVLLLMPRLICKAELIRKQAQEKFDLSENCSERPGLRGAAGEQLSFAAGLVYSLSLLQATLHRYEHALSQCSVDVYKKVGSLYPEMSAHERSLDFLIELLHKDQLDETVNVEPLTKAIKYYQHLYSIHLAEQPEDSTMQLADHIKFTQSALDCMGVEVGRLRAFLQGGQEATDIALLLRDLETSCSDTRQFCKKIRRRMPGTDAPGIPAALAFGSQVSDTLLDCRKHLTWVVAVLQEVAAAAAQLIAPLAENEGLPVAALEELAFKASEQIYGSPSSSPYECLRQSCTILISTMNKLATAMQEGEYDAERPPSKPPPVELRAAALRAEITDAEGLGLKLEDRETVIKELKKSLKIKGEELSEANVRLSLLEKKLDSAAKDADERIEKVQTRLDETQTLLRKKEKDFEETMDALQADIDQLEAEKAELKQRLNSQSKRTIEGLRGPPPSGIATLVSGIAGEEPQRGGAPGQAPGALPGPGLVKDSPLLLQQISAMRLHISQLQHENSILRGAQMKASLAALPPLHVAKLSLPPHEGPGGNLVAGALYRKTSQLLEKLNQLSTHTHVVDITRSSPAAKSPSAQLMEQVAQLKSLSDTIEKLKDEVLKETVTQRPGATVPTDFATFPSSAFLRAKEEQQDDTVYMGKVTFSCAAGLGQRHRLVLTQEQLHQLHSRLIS
UniProt Q921F2: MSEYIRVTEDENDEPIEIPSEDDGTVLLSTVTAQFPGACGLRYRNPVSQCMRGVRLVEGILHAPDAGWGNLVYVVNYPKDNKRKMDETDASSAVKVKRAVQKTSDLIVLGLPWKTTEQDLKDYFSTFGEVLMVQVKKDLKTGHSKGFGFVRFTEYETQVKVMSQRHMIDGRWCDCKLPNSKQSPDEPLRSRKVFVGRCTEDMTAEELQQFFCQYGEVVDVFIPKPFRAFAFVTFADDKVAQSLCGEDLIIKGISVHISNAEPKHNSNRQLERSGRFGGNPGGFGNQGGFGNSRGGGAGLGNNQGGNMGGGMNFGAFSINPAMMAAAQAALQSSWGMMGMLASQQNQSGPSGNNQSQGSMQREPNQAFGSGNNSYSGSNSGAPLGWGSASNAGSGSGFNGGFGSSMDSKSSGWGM

Molecular target: Dctn1 (dynactin subunit 1), endogenous mouse protein (mouse (endogenous in E16.5 brain)) (UniProt O08788)
Test: co-IP; endogenous proteins in E16.5 mouse whole brain lysate; immunoprecipitated with goat anti-DCTN1 (control IgG beside it), 4 °C 17 h, Protein G magnetic beads; 50 mM Tris-HCl pH 7.4, 150 mM NaCl, 1 mM EDTA, 0.5% NP-40, 0.5% sodium deoxycholate; blot with anti-TDP-43

- binding: binds
Substance: Tdp-43, endogenous mouse protein (from UniProt Q921F2 1-414)
